# Data reported in the supplement of paper PMC12819154, “High-throughput peptide-centric local stability assay extends protein–ligand identification to membrane proteins, tissues and bacteria” (Nature Structural & Molecular Biology, 2025).
# Protein sequences, listed by entry. Tags and fused reporters are not part of them. Lines headed by an entry give the natural chain unless they say otherwise; changes in a name come on top.
# UniProt Q15643: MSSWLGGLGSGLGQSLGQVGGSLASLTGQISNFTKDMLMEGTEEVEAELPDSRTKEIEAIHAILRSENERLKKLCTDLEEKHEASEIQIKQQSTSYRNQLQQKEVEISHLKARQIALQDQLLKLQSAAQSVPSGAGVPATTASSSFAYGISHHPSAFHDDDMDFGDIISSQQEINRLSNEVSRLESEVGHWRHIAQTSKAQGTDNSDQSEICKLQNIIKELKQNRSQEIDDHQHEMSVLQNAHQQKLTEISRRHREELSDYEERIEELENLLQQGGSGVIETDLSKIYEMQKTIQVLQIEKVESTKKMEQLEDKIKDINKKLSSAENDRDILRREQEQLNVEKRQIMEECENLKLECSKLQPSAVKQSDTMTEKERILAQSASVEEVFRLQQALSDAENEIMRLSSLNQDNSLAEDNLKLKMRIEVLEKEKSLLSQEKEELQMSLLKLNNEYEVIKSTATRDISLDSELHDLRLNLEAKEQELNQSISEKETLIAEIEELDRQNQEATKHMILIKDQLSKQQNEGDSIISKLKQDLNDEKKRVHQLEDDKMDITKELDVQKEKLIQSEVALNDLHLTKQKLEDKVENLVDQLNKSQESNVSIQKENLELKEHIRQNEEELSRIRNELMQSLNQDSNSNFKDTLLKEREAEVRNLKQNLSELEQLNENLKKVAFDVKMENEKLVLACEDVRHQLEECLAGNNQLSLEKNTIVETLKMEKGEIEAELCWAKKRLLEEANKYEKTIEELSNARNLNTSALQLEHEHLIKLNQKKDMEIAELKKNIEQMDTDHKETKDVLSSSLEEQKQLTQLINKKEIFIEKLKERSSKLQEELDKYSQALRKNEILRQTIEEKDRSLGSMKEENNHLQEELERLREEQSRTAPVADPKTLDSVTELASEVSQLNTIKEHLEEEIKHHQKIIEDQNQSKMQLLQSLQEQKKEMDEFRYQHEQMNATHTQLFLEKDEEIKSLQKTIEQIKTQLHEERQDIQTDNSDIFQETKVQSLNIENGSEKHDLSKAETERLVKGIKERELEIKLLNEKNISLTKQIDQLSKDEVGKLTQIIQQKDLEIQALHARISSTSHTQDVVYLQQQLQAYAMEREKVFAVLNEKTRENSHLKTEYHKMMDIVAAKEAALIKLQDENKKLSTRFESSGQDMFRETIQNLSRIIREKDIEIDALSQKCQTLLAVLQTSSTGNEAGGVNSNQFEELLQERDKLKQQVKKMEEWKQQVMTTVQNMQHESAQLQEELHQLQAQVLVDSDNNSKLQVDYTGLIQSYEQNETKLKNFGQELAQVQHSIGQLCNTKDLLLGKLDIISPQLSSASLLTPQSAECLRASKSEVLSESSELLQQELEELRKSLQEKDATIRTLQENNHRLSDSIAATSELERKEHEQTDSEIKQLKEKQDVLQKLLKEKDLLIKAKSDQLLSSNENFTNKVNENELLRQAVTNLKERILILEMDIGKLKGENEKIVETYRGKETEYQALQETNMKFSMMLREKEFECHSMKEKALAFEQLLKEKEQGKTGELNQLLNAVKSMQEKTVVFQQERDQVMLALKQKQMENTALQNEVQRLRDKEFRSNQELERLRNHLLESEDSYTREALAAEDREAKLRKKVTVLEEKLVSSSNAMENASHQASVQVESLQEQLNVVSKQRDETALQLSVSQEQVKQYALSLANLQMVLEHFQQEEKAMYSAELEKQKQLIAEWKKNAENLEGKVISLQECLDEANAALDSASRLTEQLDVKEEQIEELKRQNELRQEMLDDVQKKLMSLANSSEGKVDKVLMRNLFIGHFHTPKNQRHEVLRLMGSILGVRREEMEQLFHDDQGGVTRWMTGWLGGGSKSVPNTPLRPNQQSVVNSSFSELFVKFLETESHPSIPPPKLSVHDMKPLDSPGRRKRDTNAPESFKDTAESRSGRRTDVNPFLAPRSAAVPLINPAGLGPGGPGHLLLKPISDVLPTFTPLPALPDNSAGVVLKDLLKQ
# UniProt Q16829: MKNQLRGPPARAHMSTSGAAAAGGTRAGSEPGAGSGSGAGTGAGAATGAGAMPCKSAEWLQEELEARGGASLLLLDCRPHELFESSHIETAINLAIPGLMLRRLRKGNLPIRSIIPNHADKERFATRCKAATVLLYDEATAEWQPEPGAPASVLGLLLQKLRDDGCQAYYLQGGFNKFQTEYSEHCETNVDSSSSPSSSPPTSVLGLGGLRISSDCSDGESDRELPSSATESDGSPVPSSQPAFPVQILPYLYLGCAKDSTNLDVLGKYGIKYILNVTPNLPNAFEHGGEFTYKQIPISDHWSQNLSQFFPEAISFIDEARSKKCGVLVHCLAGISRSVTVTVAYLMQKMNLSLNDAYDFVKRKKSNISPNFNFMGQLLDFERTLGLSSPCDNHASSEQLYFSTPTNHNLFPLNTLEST
# UniProt Q15397: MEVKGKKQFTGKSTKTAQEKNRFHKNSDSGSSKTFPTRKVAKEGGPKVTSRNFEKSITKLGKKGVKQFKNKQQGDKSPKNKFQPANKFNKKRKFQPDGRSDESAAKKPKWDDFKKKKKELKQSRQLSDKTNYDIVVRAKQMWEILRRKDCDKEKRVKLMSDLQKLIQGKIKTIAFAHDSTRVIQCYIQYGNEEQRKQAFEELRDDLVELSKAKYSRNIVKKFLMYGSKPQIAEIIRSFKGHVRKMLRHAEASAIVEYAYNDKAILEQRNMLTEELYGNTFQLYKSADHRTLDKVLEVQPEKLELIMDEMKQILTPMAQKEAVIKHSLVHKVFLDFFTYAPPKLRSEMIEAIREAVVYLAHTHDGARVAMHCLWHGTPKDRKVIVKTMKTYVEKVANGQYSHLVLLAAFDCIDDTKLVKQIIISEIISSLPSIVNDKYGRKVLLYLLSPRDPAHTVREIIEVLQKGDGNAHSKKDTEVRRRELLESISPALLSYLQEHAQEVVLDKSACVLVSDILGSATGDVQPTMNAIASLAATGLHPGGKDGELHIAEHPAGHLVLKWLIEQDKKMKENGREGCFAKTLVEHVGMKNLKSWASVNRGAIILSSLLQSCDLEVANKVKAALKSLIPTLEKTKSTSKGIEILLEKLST
# UniProt Q3LXA3: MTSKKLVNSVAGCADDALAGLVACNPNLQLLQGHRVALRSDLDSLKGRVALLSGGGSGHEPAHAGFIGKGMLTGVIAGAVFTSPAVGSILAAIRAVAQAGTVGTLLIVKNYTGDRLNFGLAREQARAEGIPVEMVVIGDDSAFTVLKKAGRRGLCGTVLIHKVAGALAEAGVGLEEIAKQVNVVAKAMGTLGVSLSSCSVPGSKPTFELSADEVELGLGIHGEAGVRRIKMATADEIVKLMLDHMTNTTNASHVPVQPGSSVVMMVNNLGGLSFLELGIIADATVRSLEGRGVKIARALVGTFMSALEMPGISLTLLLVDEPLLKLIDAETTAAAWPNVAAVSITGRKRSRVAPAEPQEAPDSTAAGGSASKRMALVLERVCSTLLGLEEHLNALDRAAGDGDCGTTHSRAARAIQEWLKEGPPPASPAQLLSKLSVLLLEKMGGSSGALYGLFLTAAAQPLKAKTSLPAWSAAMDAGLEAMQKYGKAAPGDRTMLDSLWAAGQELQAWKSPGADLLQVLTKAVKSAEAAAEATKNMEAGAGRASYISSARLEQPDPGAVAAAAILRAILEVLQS
# UniProt Q2M389: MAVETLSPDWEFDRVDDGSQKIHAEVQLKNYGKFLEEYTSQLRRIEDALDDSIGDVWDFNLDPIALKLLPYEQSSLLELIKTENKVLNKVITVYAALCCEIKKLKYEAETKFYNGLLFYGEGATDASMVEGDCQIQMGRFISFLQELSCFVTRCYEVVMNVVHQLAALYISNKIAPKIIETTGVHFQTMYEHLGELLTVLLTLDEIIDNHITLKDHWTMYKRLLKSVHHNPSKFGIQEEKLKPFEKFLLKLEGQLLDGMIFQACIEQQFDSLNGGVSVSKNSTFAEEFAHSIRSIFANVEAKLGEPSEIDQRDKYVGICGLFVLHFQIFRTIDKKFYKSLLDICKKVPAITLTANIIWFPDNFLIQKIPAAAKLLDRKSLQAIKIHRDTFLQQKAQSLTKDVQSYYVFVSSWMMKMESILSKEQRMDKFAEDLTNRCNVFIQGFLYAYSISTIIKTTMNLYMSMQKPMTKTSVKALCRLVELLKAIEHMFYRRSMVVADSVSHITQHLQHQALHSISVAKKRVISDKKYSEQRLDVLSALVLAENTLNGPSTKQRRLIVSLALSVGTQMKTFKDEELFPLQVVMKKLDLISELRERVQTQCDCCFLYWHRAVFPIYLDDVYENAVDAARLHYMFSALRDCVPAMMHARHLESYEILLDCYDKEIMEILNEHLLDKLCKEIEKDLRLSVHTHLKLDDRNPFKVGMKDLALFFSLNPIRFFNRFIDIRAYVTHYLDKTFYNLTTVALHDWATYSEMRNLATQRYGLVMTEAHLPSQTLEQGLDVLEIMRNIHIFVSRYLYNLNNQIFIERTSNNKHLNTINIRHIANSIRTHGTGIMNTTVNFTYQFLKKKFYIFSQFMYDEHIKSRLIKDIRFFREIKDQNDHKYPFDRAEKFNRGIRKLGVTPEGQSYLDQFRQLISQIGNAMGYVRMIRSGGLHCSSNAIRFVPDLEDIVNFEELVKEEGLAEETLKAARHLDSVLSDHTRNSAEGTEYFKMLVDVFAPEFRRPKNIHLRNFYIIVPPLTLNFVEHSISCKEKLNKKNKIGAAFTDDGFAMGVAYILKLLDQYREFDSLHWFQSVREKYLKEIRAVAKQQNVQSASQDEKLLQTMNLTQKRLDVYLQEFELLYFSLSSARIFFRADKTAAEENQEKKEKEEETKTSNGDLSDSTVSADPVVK
# UniProt Q15021, whole entry: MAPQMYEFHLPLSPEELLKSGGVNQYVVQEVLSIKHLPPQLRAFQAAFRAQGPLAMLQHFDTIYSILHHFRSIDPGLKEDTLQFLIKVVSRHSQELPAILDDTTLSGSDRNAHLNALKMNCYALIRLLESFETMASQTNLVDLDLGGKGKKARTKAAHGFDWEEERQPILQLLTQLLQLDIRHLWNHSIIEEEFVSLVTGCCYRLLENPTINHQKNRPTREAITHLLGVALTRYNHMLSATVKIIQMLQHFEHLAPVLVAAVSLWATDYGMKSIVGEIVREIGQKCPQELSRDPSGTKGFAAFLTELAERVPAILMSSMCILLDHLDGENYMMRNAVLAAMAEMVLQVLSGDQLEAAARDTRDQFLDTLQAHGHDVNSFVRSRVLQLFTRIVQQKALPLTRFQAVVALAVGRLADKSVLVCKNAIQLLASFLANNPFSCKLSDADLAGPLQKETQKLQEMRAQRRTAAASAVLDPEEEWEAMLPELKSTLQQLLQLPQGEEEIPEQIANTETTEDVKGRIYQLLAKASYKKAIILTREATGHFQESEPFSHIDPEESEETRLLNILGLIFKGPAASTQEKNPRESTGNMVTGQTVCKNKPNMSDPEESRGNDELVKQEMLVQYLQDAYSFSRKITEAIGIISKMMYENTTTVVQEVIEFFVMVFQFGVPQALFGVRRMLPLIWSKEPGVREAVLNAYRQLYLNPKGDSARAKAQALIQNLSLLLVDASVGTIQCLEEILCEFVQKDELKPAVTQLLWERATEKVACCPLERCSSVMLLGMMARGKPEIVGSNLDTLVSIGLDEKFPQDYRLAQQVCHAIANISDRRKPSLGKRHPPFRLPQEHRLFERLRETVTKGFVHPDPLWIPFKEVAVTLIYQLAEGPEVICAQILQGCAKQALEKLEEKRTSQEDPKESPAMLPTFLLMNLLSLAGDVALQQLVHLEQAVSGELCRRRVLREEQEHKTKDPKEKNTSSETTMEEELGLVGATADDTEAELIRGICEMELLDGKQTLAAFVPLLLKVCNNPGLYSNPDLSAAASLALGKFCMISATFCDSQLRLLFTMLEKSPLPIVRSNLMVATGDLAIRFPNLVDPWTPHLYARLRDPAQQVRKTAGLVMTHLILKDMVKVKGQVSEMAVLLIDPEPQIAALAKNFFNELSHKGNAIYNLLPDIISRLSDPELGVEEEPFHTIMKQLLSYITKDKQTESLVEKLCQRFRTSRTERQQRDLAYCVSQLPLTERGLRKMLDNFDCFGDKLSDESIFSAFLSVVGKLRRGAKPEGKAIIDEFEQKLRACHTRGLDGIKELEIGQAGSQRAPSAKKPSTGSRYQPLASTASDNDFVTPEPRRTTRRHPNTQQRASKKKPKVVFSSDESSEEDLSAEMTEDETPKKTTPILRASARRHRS
# UniProt Q15102: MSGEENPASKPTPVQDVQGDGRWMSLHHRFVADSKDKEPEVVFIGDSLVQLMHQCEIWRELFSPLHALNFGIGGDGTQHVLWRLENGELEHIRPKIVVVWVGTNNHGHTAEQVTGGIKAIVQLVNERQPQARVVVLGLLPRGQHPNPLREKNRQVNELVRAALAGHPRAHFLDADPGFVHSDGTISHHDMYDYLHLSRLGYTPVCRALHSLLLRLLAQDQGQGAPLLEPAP
# Some of the results follow. Most values lie at the level of the controls, where differences are scatter.
# Compound: Cc1nc(Nc2ncc(C(=O)Nc3c(C)cccc3Cl)s2)cc(N2CCN(CCO)CC2)n1 [dasatinib]
# Assay: log2 fold change of tryptic peptide abundance, ligand vs vehicle (limited proteolysis) (log2 ratio); higher = more trypsin-susceptible (destabilized)
# Conditions: ligand concentration: 5 uM; sample: K562 cleared lysate
row,Target,log2 fold change
1,"PPP1R7 (peptide sequence: ELDLYDNQIK, peptide start residue: 124) (UniProt Q15435)",-0.14
2,"UniProt Q15776 (peptide sequence: AFSQSAGLILHQR, peptide start residue: 414)",0.736
3,"UniProt Q3KQV3 (peptide sequence: SAHECSECGKSFNCNSSLIK, peptide start residue: 392)",-0.614
4,"SF3A2 (peptide sequence: QFFLQFHFK, peptide start residue: 205) (UniProt Q15428)",0.282
5,"WDR43 (peptide sequence: LWVLETK, peptide start residue: 192) (UniProt Q15061)",-0.383
6,"POLD3 (peptide sequence: SNLQNCSK, peptide start residue: 124) (UniProt Q15054)",0.192
7,"UniProt Q38SD2 (peptide sequence: IYIYTLK, peptide start residue: 1603)",0.042
8,"QRICH1 (peptide sequence: MVGTTSVVK, peptide start residue: 361) (UniProt Q2TAL8)",-0.0519
9,"TAF7 (peptide sequence: LTIELHPDGR, peptide start residue: 43) (UniProt Q15545)",-0.34
10,"TRIP11 (peptide sequence: QSDTMTEK, peptide start residue: 367) (UniProt Q15643)",-0.443
11,"SLC1A5 (peptide sequence: HYRGPAGDATVASEKESVM, peptide start residue: 523) (UniProt Q15758)",0.244
12,"TBCE (peptide sequence: HLEVLNVSENK, peptide start residue: 180) (UniProt Q15813)",-0.279
13,"PDCD2 (peptide sequence: VCGCLGPKTCSR, peptide start residue: 137) (UniProt Q16342)",-0.244
14,"UniProt Q16829 (peptide sequence: LRDDGCQAYYLQGGFNK, peptide start residue: 161)",-0.0904
15,"UniProt Q15397 (peptide sequence: TIAFAHDSTR, peptide start residue: 172)",0.351
16,"CDK10 (peptide sequence: AAPATSEGQSK, peptide start residue: 346) (UniProt Q15131)",0.255
17,"UniProt Q15287 (peptide sequence: MLPPPPMWR, peptide start residue: 256)",-0.0556
18,"UniProt Q16659 (peptide sequence: AQIALEEASQQLAGKER, peptide start residue: 503)",-0.578

row,Target,log2 fold change
1,"SWI5 (peptide sequence: DVGQMLMGK, peptide start residue: 205) (UniProt Q1ZZU3)",-0.0701
2,"UBE3C (peptide sequence: VVEGFTDEEKRK, peptide start residue: 999) (UniProt Q15386)",0.63
3,"C18orf21 (peptide sequence: NYTLSFK, peptide start residue: 79) (UniProt Q32NC0)",0.654
4,"LRRC14 (peptide sequence: MHTLVFLSTR, peptide start residue: 1) (UniProt Q15048)",0.185
5,"UniProt Q3LXA3 (peptide sequence: SPGADLLQVLTK, peptide start residue: 511)",-0.305
6,"CCDC6 (peptide sequence: KASVTIQAR, peptide start residue: 96) (UniProt Q16204)",-0.0983
7,"CPSF6 (peptide sequence: GFALVGVGSEASSK, peptide start residue: 125) (UniProt Q16630)",-0.14
8,"TBC1D25 (peptide sequence: RDPLVQLPHPAALISSK, peptide start residue: 521) (UniProt Q3MII6)",-0.224
9,"HERPUD1 (peptide sequence: VYPERPRPEDQR, peptide start residue: 44) (UniProt Q15011)",0.636
10,"PMVK (peptide sequence: LVLLFSGKR, peptide start residue: 10) (UniProt Q15126)",0.267
11,"UniProt Q2M389 (peptide sequence: LDDRNPFKVGMK, peptide start residue: 694)",0.382
12,"NCAPD2 (peptide sequence: QLYLNPK, peptide start residue: 699) (UniProt Q15021)",-0.246
13,"SUZ12 (peptide sequence: TFKVDDMLSK, peptide start residue: 131) (UniProt Q15022)",-0.74
14,"SF3B3 (peptide sequence: SEHPPLCGR, peptide start residue: 1150) (UniProt Q15393)",0.0969
15,"PAFAH1B3 (peptide sequence: IVVVWVGTNNHGHTAEQVTGGIK, peptide start residue: 96) (UniProt Q15102)",0.124
16,"RHEB (peptide sequence: VQIPIMLVGNKK, peptide start residue: 110) (UniProt Q15382)",-0.111
17,"PCBP2 (peptide sequence: GVTIPYRPK, peptide start residue: 177) (UniProt Q15366)",0.0864
18,"UniProt Q15973 (peptide sequence: GEDQSIEDQYK, peptide start residue: 56)",0.618

# 3 successive records already listed, for reference:
row,Target,log2 fold change
6,"CCDC6 (peptide sequence: KASVTIQAR, peptide start residue: 96) (UniProt Q16204)",-0.0983
7,"CPSF6 (peptide sequence: GFALVGVGSEASSK, peptide start residue: 125) (UniProt Q16630)",-0.14
8,"TBC1D25 (peptide sequence: RDPLVQLPHPAALISSK, peptide start residue: 521) (UniProt Q3MII6)",-0.224
